Here are results for one substance from paper PMC5154354.

Amino acid sequences for entries named in this document (tags omitted). Residues count along the entry.
UniProt P10809, residues 27-573: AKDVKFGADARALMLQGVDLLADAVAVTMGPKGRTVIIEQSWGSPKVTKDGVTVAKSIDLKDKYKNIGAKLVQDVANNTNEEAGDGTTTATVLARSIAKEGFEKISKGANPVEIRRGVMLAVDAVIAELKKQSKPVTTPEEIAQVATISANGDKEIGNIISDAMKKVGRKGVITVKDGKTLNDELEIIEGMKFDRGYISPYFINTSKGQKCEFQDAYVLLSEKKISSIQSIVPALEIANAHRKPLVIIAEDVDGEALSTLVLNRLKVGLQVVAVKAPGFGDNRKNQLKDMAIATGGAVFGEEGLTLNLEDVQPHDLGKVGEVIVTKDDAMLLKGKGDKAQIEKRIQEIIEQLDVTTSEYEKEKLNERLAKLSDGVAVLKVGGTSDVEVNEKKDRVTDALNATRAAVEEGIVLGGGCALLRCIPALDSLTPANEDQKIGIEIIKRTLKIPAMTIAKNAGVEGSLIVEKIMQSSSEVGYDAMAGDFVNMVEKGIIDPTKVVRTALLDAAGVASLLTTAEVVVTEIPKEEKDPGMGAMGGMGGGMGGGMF

No constants are given. Whether binding was seen depends on the method and setting. Binding seen in cells or lysates may run through a third protein. A yes stands for co-enrichment or nearness to the bait. Other partners may have been found.

The target in this assay is T1, Biotin-P17 (synthetic peptide P17, 39 residues, N-terminally biotinylated).
T1 sequence (peptide, biotin on the N-terminus): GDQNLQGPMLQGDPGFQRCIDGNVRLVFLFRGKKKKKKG
The assay can be described thus: affinity purification with mass spectrometry; biotin-P17 on streptavidin magnetic beads (about 75 ug P17 per pull-down); precleared cytoplasmic and nuclear protein extracts of TRAIL-treated (10 ng/ml, 24 h) Jurkat cells; binding buffer 0.5 M NaCl, 20 mM Tris-HCl, 1 mM EDTA, pH 7.5, on ice 4 h; SDS-PAGE, Coomassie, band excised, MALDI-FTICR MS; only the target purified.

Take “heat shock protein 60 (HSP60) (from UniProt P10809 27-573)”: the binding entry is given as “binds”.
